The results in this text go back to article PMC12115182.

By UniProt entry, the sequences of proteins in these tests, tags left out. Where a name states a change or a piece, a line headed by the entry shows the natural chain unless it says otherwise.
UniProt P15927: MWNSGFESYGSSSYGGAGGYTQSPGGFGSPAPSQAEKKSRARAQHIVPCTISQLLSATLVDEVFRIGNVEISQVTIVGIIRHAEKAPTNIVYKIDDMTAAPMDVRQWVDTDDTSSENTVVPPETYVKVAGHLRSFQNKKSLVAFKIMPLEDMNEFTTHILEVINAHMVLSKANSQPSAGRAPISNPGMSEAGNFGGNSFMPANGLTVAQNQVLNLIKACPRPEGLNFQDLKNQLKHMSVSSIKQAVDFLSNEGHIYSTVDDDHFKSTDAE

The data set has as its target huRPA32 (human RPA32) (human) (UniProt P15927). The data set is described as follows: EMSA. As to conditions: 10 uM huRPA32, 1% DMSO control, 40 mM Tris-HCl pH 7.5, 50 mM NaCl, 37 C, 60 min, 8% native PAGE in TBE, 100 V 1 h, recombinant protein, single-stranded DNA.

For at least one entry, the source does not settle the construct or the ends of the probe.

With TTTTTTTTTTTTTTTTTTTTTTTTT [dT25], the IC50 is, setting by setting: (inhibition by S. purpurea leaf acetone extract Sp-L-A) 236 µg/mL; (inhibition by S. purpurea root acetone extract Sp-R-A) 13.6 µg/mL; (inhibition by S. purpurea stem acetone extract Sp-S-A) 43 µg/mL.
